Growth estimate data for 150 substances are collected here from the supplement of paper PMC5949888.

Most values lie at the floor of the assay. Slopes are relative: functional sequences can read slightly below zero. Where only a bound is given, the exact number is not on record here.

In the data set the test system is Saccharomyces cerevisiae PS128 hsf1 delta, HSF1(1-493) fusion. The experiment in a line: growth estimate (transactivation domain function in HSF1 fusion, heat-shock survival) (a.u. (slope of normalised read count over time)); higher = stronger growth at 37°C, i.e. more transactivation activity. To be noted: library: random library. The procedure: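 Random 60-nt DNA library encoding peptides of up to 20 aa, fused to the C-terminus of yeast HSF1 residues 1-493 (C-terminal TAD deleted) and expressed from the native HSF1 promoter on a CEN plasmid in hsf1-deleted S. cerevisiae PS128. Cells were selected at 37°C on -trp 5-FOA plates for 0, 2, 4, 6 and 8 days and amplicons were sequenced. Growth estimate is the slope of a robust linear fit of total-sum-normalised read counts (normalised to the first time point) over time, using at least 2 replicates. Sequences are classed functional (TAD activity) above a threshold of -0.13, set from stop-codon control sequences.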
TAGESVASGYGLTLLFGDAP: the growth estimate is below -0.25.
For IGVRLCPLPNTRRISIGGVY the value was below -0.25; for LDHRIW, below -0.25; for TVGLGSVVSRRRTVRHSLEA, below -0.25.
For SSVCMYCSLEFMHRSYAGTR the value was below -0.25.
Turning to QATLALRGLDFRSSECLSRP, the growth estimate is below -0.25.
As for RVSLFFTLFALNSEWDCFRL, the growth estimate is below -0.25.
With KSSTWAQVT, the growth estimate is below -0.25.
Turning to GTISRVIPHGCAR, the growth estimate was below -0.25.
Then SGEWLDLGIRLKIPDDPVAL, with below -0.25.
For SCVTGSNFPYSSRVGLHTSF, the growth estimate was -0.246.
Take RKVL: the growth estimate was below -0.25.
For WNQIRSDGVSFRLRTCACGM the value was below -0.25; for QSPTEA, below -0.25; for RYVRCRTVAPIGASSTLGMR, below -0.25.
For VNALNGTPKEGEKRASLRGR the value was below -0.25; for GFGYRLDSAIRWSPTSTHNR, below -0.25.
Then LDRTIVGTGQVALRRRDSPT, with below -0.25.
Consider GTMFYETPVETRPEQRLRGL, for which the growth estimate was -0.151.
For TRRRFTYAEGARLRITITGI the value was below -0.25; for GYSHYSVGTSRTVLDRRLNG, below -0.25.
For SRLTELLKHEVLSGTQVVGS, the growth estimate was below -0.25.
For the substance EYSRLQV, the growth estimate is below -0.25.
On to CWIMRATPEDVQRRSQSPEC, for which the growth estimate is below -0.25.
In the case of TCMNVIFASRY, the growth estimate was below -0.25.
Then LRCRVRKEQSFRVPRAQILL, with below -0.25; and NLYTHLHEGLGPVK, with below -0.25.
Consider HGRAIRLFVHIWTLGVGSKC, for which the growth estimate was below -0.25.
For TKDILSPRPLLYLIKLILRC the value was below -0.25; for NLVLSKGSTTVWDRRSSSGI, below -0.25; for DSR, below -0.25.
On to NCKGAPQTF, for which the growth estimate was below -0.25.
Turning to WKV, the growth estimate was below -0.25.
On to NRRWSILWDARVDVGTTI, for which the growth estimate was below -0.25.
Then RSDCPHLAPRYRKPAPGEYG, with below -0.25; and RLATAREH, with below -0.25.
Turning to VKGEQNTSRARDERLTGRHQ, the growth estimate is below -0.25.
On to PNRVNVGDQNKSTDSRI, for which the growth estimate was below -0.25.
For RSSTFRLLDTLNWRGKGPLF, the growth estimate was below -0.25.
Regarding PGCNESCLSCKIGPRLSGGA, the growth estimate is below -0.25.
For CLTASTVVDQPSVETVPWST the value was below -0.25.
For FGSLKHAC the value was below -0.25.
For DAFVQHI the value was below -0.25; for HESRRVNGVSGIAPGGTSSA, below -0.25.
Consider VAQSRNESGPT, for which the growth estimate was below -0.25.
Consider EYTGWSPHQPG, for which the growth estimate is below -0.25.
Take AEICDIIRYSSRRPPPGADL: the growth estimate was below -0.25.
For GRSDTR, the growth estimate was below -0.25.
Take NCCELWNRNFRHLLLRL: the growth estimate was below -0.25.
As for AQVPRQQSPQVLHSIRRPGS, the growth estimate was below -0.25.
Then SGRTDFAELHVLPIKAPRKL, with below -0.25; and VRDGTDGAGGLATTNTNSRR, with below -0.25.
For RLFEAQGLTESQCL the value was below -0.25; for GGKLAS, below -0.25.
Then PGRVETEISSRQIRVWSDSR, with below -0.25; and EGFTFQVHGESSPRVGVLCP, with below -0.25.
For VHANCS, the growth estimate is below -0.25.
Then ASTNTVAAQRGFRAEEPYAP, with below -0.25.
Then GWDVGHARQSCAHGI, with below -0.25.
For IALGPTRATGPNPRLSS the value was below -0.25.
For the substance RNTLDWHADAAYLWRFKHAS, the growth estimate is below -0.25.
TDCRLSSIWQGAEASRIPQL: the growth estimate is below -0.25.
For MARPRFVHARELS the value was below -0.25.
For KLSGRVCTPER the value was below -0.25.
Take EPSPWTECKAPRYWL: the growth estimate is -0.243.
Consider PDREQ, for which the growth estimate was below -0.25.
For RDVMRSNFLKCGTTNRVG the value was below -0.25; for AFALLQRVRSSTHAS, below -0.25; for AYLIRLAACPKTVTTHLDKC, below -0.25.
Then RASTLGGCLNAMVTADVLLC, with below -0.25; and PSLGTGGSDLGLEGFILKC, with below -0.25; and KLSLKVQFSTVESLFAPKWS, with below -0.25.
In the case of RTLECGAFHEPIQGQTRKHL, the growth estimate was below -0.25.
Then SRGLGSSE, with below -0.25.
For GYSS the value was -0.209.
As for SARTLR, the growth estimate was below -0.25.
For PRGGRIRRILLVTIRFPDPP the value was below -0.25.
As for SVLIPFVAVEDSLINKP, the growth estimate was below -0.25.
For GSEICHQ the value was below -0.25; for VGKVVGVSRAKIECIITSWT, below -0.25; for IWFIVRCRLALTHDEHAFCM, below -0.25.
Then HARFSACVHFEFPFHMLKGY, with below -0.25.
On to QRDNTRRPNNGSWCGWPVRE, for which the growth estimate was below -0.25.
For WFGQVRD, the growth estimate is below -0.25.
In the case of RVQT, the growth estimate is below -0.25.
For TFDIIGSCQCCTVGLMTFKT the value was below -0.25.
For the substance RSSG, the growth estimate is below -0.25.
Consider IYEP, for which the growth estimate was below -0.25.
With VTVSERYGFFKE, the growth estimate was below -0.25.
Then AIRLRRQAVDSVTAPVTE, with below -0.25.
For GGFGGGSISNSYDRGIHASG the value was below -0.25.
For ING the value was below -0.25; for SQILK, below -0.25; for DILCYIERHLMVRRSAVCW, below -0.25.
Take ERPC: the growth estimate was below -0.25.
Then LPPRRASPQGG, with below -0.25; and YNSLAIALVYFTWWK, with below -0.25.
Then RHTER, with below -0.25; and GLDSCRQPLARKQIG, with below -0.25.
Turning to AAVDYVVGTGPSLNDPVTVK, the growth estimate was below -0.25.
For HSTARCTPPDPRQRVDMNVE the value was -0.245.
With TADIEKISRLAADEYCNLIE, the growth estimate is -0.246.
As to DRSKRVELTVTSVPPPQWNM, the growth estimate is below -0.25.
For TDS the value was below -0.25.
Then GCQRIAQAQMYRNIAGHTSL, with below -0.25; and LCVPRAADHFLGGLVEWPQL, with below -0.25; and NWGLDRDEFYRAERAYWDEL, with -0.171.
For VHSAFIWWY the value was below -0.25; for SGSGFRRRAGNQGRVHFPSV, below -0.25.
As to SLALHKVAEVVNDRFREKGA, the growth estimate was below -0.25.
For the substance SRVIRSIGGS, the growth estimate was below -0.25.
AVAYTSLLDEWYGLDPAQGN: the growth estimate was 0.05.
For SLTTPALNLKVRMGLRRPPL the value was below -0.25.
As for WESRRRYTRTDIGSALLEG, the growth estimate is below -0.25.
For RILHT the value was below -0.25.
For ITLTTRRRRRRWRVSQ the value was below -0.25; for SLAHEVVQWEVAFP, -0.243; for CDVLLQNVTGSLSARVPPTR, below -0.25.
RRWTPKHEGDKASNGCL: the growth estimate was below -0.25.
Turning to KLFTGIPCKVE, the growth estimate is below -0.25.
For RASQLTSRDTETCVALDPHW the value was below -0.25.
Then HCILAPGAVQHQYCLDAL, with below -0.25; and SSGRAC, with below -0.25; and KVRVGTPLAVRQVC, with below -0.25.
Consider ECGGLDFCM, for which the growth estimate is below -0.25.
For PLGTFTPFRGFAGQSRNRRR the value was below -0.25; for RFLTTSITPDAHSSFLCDIA, below -0.25; for IQLRDGDRTKV, below -0.25.
For GCK the value was below -0.25.
For VIRASH the value was below -0.25; for SGA, below -0.25.
For the substance TPEGFQLSTGLYRACPCDWC, the growth estimate was below -0.25.
Then SIVQPGFGRKAGHVCDGILR, with below -0.25; and RFIFQYMRYCWVYRSVESH, with below -0.25.
For the substance GDLGLGWANFGTQVIESIWR, the growth estimate is -0.245.
Take CGSSSPIEANLRYMSSRYLL: the growth estimate was below -0.25.
For GYGRTLWPCCG the value was below -0.25.
VGNVKRTTISGKGPIRPHGV: the growth estimate is below -0.25.
On to IHSKL, for which the growth estimate was below -0.25.
For TVSEGDQDEVRIGLCVIESI, the growth estimate was below -0.25.
Consider SCVY, for which the growth estimate was below -0.25.
As to RRNKAEGGVRDYLRALGLTV, the growth estimate is below -0.25.
For HHVGPASPAILTVQVKIVGN the value was below -0.25; for LGWGYTMYSHVCWPVERNRP, below -0.25; for YTQSITYGWSWGNWHFLVG, below -0.25.
In the case of ADANHIGTWGEVNLMINIPR, the growth estimate was below -0.25.
For VYGNEYG the value was below -0.25.
On to AGFLQESYCTRNAVPHECTW, for which the growth estimate is below -0.25.
Consider GGDEAPKF, for which the growth estimate was below -0.25.
Regarding YVGKFSEYRVPVSLGFLKTS, the growth estimate was below -0.25.
